Reference: US20200347441
The exact form of at least one protein or probe is not confirmed. Tags and fusion partners may be left off the protein sequences shown.

Tested on: T1, TnAa transposase wild-type (Alishewanella aestuarii)
T1 sequence: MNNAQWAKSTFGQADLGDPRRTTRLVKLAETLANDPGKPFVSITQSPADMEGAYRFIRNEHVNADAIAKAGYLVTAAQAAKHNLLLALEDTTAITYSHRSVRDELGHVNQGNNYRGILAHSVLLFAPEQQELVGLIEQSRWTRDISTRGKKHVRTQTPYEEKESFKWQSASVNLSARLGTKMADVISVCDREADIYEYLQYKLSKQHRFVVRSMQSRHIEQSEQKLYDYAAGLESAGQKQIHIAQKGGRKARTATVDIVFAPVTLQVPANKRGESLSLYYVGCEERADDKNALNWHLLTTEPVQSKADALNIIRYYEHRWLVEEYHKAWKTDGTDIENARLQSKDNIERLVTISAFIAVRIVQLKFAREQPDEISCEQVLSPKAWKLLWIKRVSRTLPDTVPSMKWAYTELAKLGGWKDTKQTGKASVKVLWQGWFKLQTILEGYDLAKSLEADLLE
Test: activity in cells
Conditions: E. coli DH10B, only a few colonies; protein in cells

Sequence “CTCGAGTAACGGACGAACGCAAACAAACGTGGATCCTTCAGCTGTCTCTTATACACATCTGAACTAGTTGTAGGCCTAAATTCGAACTGATCCTTCAACTCAGCAAAAGTTCGATTTATTCAACAAAGCCACGTTGTGTCTCAAAATCTCTGATGTTACATTGCACAAGATAAAAATATATCATCATGAACAATAAAACTGTCTGCTTACATAAACAGTAATACAAGGGGTGTTATGAGCCATATTCAACGGGAAACGTCTTGCTCTAGGCCGCGATTAAATTCCAACATGGATGCTGATTTATATGGGTATAAATGGGCTCGCGATAATGTCGGGCAATCAGGTGCGACAATCTATCGATTGTATGGGAAGCCCGATGCGCCAGAGTTGTTTCTGAAACATGGCAAAGGTAGCGTTGCCAATGATGTTACAGATGAGATGGTCAGACTAAACTGGCTGACGGAATTTATGCCTCTTCCGACCATCAAGCATTTTATCCGTACTCCTGATGATGCATGGTTACTCACCACTGCGATCCCCGGGAAAACAGCATTCCAGGTATTAGAAGAATATCCTGATTCAGGTGAAAATATTGTTGATGCGCTGGCAGTGTTCCTGCGCCGGTTGCATTCGATTCCTGTTTGTAATTGTCCTTTTAACAGCGATCGCGTATTTCGTCTCGCTCAGGCGCAATCACGAATGAATAACGGTTTGGTTGATGCGAGTGATTTTGATGACGAGCGTAATGGCTGGCCTGTTGAACAAGTCTGGAAAGAAATGCATAAGCTTTTGCCATTCTCACCGGATTCAGTCGTCACTCATGGTGATTTCTCACTTGATAACCTTATTTTTGACGAGGGGAAATTAATAGGTTGTATTGATGTTGGACGAGTCGGAATCGCAGACCGATACCAGGATCTTGCCATCCTATGGAACTGCCTCGGTGAGTTTTCTCCTTCATTACAGAAACGGCTTTTTCAAAAATATGGTATTGATAATCCTGATATGAATAAATTGCAGTTTCATTTGATGCTCGATGAGTTTTTCTAACACGATATCGTCAATTGCTAGATGTGTATAAGAGACAGGCTGGACAACGAGAGTAGTTACGTCCTAGG (double strand) [Mobilisable kanamycin region of TnAa minimal test vectors]” has an activity on this sequence (colonies per plate (undiluted)) of 47.
